Taken from: PubChem BioAssay AID1224830 (NIAID, 2016)
In all, the deposit lists about 18,000 reagents; this is a random part of them. About 2,900 of them (16%) were called active. 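Calls are made per well; low scores hint the gene aids the LPS response, high scores that it dampens it.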 Repeated entries: four replicate wells of each siRNA pool.

- Screen: 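Host factors that control LPS-induced TNF expression in human macrophages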 (primary screen)
- Cells: human THP-1 monocytic leukaemia cells, TNF dual-luciferase reporter clone, PMA-differentiated to macrophage-like cells
- Reagents: siRNA pool against human genes, 50 nM
- Time to read-out: LPS for 4 h, given about 3 days after siRNA transfection
- Challenge: bacterial LPS (TLR4 ligand), 10 ng/ml
- Read-out: 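Ratio of firefly to renilla light, scaled to the plate median and expressed as a robust z-score per replicate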
- Reading the numbers: TNF reporter robust z-score: higher = stronger TNF reporter response to LPS
- Call rule: 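Each well counts as active if its z-score is over 2.8 or under -1.5; controls are left without a call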

For KLHL13 (kelch like family member 13), what was measured?
TNF reporter robust z-score: 0.34; outcome: inactive

Which result is listed for KLHL13 (kelch like family member 13)?
TNF reporter robust z-score: 0.58; outcome: inactive

What is on record for KLHL13 (kelch like family member 13)?
TNF reporter robust z-score: -0.23; outcome: inactive

With KLHL13 (kelch like family member 13), what was measured?
TNF reporter robust z-score: -0.96; outcome: inactive

What is on record for MED29 (mediator complex subunit 29)?
TNF reporter robust z-score: 0.48; outcome: inactive

Which result is listed for MED29 (mediator complex subunit 29)?
TNF reporter robust z-score: 1.2; outcome: inactive

For MED29 (mediator complex subunit 29), what was measured?
TNF reporter robust z-score: 0.5; outcome: inactive

What did the screen give for MED29 (mediator complex subunit 29)?
TNF reporter robust z-score: 0.44; outcome: inactive

For PHLDB2 (pleckstrin homology like domain family B member 2), what was measured?
TNF reporter robust z-score: -0.35; outcome: inactive

What did the screen give for PHLDB2 (pleckstrin homology like domain family B member 2)?
TNF reporter robust z-score: -0.9; outcome: inactive

With PHLDB2 (pleckstrin homology like domain family B member 2), how do the results read?
TNF reporter robust z-score: 1.29; outcome: inactive

What did the screen give for PHLDB2 (pleckstrin homology like domain family B member 2)?
TNF reporter robust z-score: -0.27; outcome: inactive

For KLF15 (KLF transcription factor 15), what does the deposit list?
TNF reporter robust z-score: -0.69; outcome: inactive

How did the screen score KLF15 (KLF transcription factor 15)?
TNF reporter robust z-score: -0.47; outcome: inactive

With KLF15 (KLF transcription factor 15), what does the deposit list?
TNF reporter robust z-score: -1.11; outcome: inactive

With KLF15 (KLF transcription factor 15), how do the results read?
TNF reporter robust z-score: -0.34; outcome: inactive

Which result is listed for KHDC3L?
TNF reporter robust z-score: 0.34; outcome: inactive

What is on record for KHDC3L?
TNF reporter robust z-score: -0.18; outcome: inactive

What did the screen give for KHDC3L?
TNF reporter robust z-score: -0.26; outcome: inactive

With KHDC3L, what does the deposit list?
TNF reporter robust z-score: 0.23; outcome: inactive

How did the screen score WDR72 (WD repeat domain 72)?
TNF reporter robust z-score: -0.02; outcome: inactive

With WDR72 (WD repeat domain 72), how do the results read?
TNF reporter robust z-score: -0.22; outcome: inactive

What is on record for WDR72 (WD repeat domain 72)?
TNF reporter robust z-score: 0.24; outcome: inactive

With WDR72 (WD repeat domain 72), what was measured?
TNF reporter robust z-score: 0.36; outcome: inactive

What did the screen give for IQSEC2 (IQ motif and Sec7 domain ArfGEF 2)?
TNF reporter robust z-score: 2.12; outcome: inactive

What is on record for IQSEC2 (IQ motif and Sec7 domain ArfGEF 2)?
TNF reporter robust z-score: 1.91; outcome: inactive

With IQSEC2 (IQ motif and Sec7 domain ArfGEF 2), what does the deposit list?
TNF reporter robust z-score: 1.02; outcome: inactive

Which result is listed for IQSEC2 (IQ motif and Sec7 domain ArfGEF 2)?
TNF reporter robust z-score: 1.33; outcome: inactive

With LHCGR (luteinizing hormone/choriogonadotropin receptor), what does the deposit list?
TNF reporter robust z-score: -0.69; outcome: inactive

For LHCGR (luteinizing hormone/choriogonadotropin receptor), how do the results read?
TNF reporter robust z-score: 1.7; outcome: inactive

How did the screen score LHCGR (luteinizing hormone/choriogonadotropin receptor)?
TNF reporter robust z-score: 0.34; outcome: inactive

With LHCGR (luteinizing hormone/choriogonadotropin receptor), how do the results read?
TNF reporter robust z-score: 1.46; outcome: inactive

Which result is listed for OR5D14 (olfactory receptor family 5 subfamily D member 14)?
TNF reporter robust z-score: -0.53; outcome: inactive

With OR5D14 (olfactory receptor family 5 subfamily D member 14), what does the deposit list?
TNF reporter robust z-score: -0.68; outcome: inactive

What did the screen give for OR5D14 (olfactory receptor family 5 subfamily D member 14)?
TNF reporter robust z-score: -0.06; outcome: inactive

What is on record for OR5D14 (olfactory receptor family 5 subfamily D member 14)?
TNF reporter robust z-score: -0.28; outcome: inactive

With CCNJL (cyclin J like), what was measured?
TNF reporter robust z-score: -0.7; outcome: inactive

For CCNJL (cyclin J like), how do the results read?
TNF reporter robust z-score: -0.45; outcome: inactive

How did the screen score CCNJL (cyclin J like)?
TNF reporter robust z-score: -0.71; outcome: inactive

For MATR3 (matrin 3), how do the results read?
TNF reporter robust z-score: 0.87; outcome: inactive

For MATR3 (matrin 3), what was measured?
TNF reporter robust z-score: 0.69; outcome: inactive

How did the screen score MATR3 (matrin 3)?
TNF reporter robust z-score: 0.97; outcome: inactive

With MATR3 (matrin 3), what does the deposit list?
TNF reporter robust z-score: 0.27; outcome: inactive

What is on record for VGLL4 (vestigial like family member 4)?
TNF reporter robust z-score: -0.15; outcome: inactive

With VGLL4 (vestigial like family member 4), how do the results read?
TNF reporter robust z-score: -0.21; outcome: inactive

How did the screen score VGLL4 (vestigial like family member 4)?
TNF reporter robust z-score: 0.01; outcome: inactive

With VGLL4 (vestigial like family member 4), how do the results read?
TNF reporter robust z-score: 0.34; outcome: inactive
